These are yes or no findings as the source states them, for the method shown. Where a sequence is shown, tags or fusion partners need not be part of it. Each block holds one binder with its values, some of them ahead of it.
Target: free GST
Experiment: pull-down; in vitro; equal amounts of free GST, GST-UBP12 or GST-UBP13 as baits incubated with HIS-MBP-DA1, -DAR1 or -DAR2; purification with anti-GST beads; Western blot; both purified

binding: no binding
B1: HIS-MBP-DAR2 (natural protein, Arabidopsis thaliana, UniProt Q0WSN2 1-528, looked up)
chain: MDSSSSSSSSSPSSSYGVARVSHISNPCIFGEVGSSSSSTYRDKKWKLMKWVSKLFKSGSNGGGSGAHTNHHPPQFQEDENMVFPLPPSSLDDRSRGARDKEELDRSISLSLADNTKRPHGYGWSMDNNRDFPRPFHGGLNPSSFIPPYEPSYQYRRRQRICGGCNSDIGSGNYLGCMGTFFHPECFRCHSCGYAITEHEFSLSGTKPYHKLCFKELTHPKCEVCHHFIPTNDAGLIEYRCHPFWNQKYCPSHEYDKTARCCSCERLESWDVRYYTLEDGRSLCLECMETAITDTGECQPLYHAIRDYYEGMYMKLDQQIPMLLVQREALNDAIVGEKNGYHHMPETRGLCLSEEQTVTSVLRRPRLGAHRLVGMRTQPQRLTRKCEVTAILVLYGLPRLLTGAILAHELMHGWLRLNGFRNLNPEVEEGICQVLSYMWLESEVLSDPSTRNLPSTSSVATSSSSSFSNKKGGKSNVEKKLGEFFKHQIAHDASPAYGGGFRAANAAACKYGLRRTLDHIRLTGTFPL
notes: DAR2, Arabidopsis thaliana, AT2G39830; source: E. coli BL21 (DE3), purified (NI-NTA agarose beads)

binding: no binding
B2: HIS-MBP-DA1 (natural protein, Arabidopsis thaliana, UniProt P0C7Q8 1-532, looked up)
chain: MGWFNKIFKGSNQRLRVGNNKHNHNVYYDNYPTASHDDEPSAADTDADNDEPHHTQEPSTSEDNTSNDQENEDIDRAIALSLLEENQEQTSISGKYSMPVDEDEQLARALQESMVVGNSPRHKSGSTYDNGNAYGAGDLYGNGHMYGGGNVYANGDIYYPRPITFQMDFRICAGCNMEIGHGRFLNCLNSLWHPECFRCYGCSQPISEYEFSTSGNYPFHKACYRERYHPKCDVCSHFIPTNHAGLIEYRAHPFWVQKYCPSHEHDATPRCCSCERMEPRNTRYVELNDGRKLCLECLDSAVMDTMQCQPLYLQIQNFYEGLNMKVEQEVPLLLVERQALNEAREGEKNGHYHMPETRGLCLSEEQTVSTVRKRSKHGTGKWAGNITEPYKLTRQCEVTAILILFGLPRLLTGSILAHEMMHAWMRLKGFRTLSQDVEEGICQVMAHKWLDAELAAGSTNSNAASSSSSSQGLKKGPRSQYERKLGEFFKHQIESDASPVYGDGFRAGRLAVHKYGLRKTLEHIQMTGRFPV
notes: DA1, Arabidopsis thaliana, AT1G19270; source: E. coli BL21 (DE3), purified (NI-NTA agarose beads)

binding: no binding
B3: HIS-MBP-DAR1 (natural protein, Arabidopsis thaliana, UniProt Q8W4F0 1-553, looked up)
chain: MGWLTKILKGSSHKFSDGQCNGRYREDRNLEGPRYSAEGSDFDKEEIECAIALSLSEQEHVIPQDDKGKKIIEYKSETEEDDDDDEDEDEEYMRAQLEAAEEEERRVAQAQIEEEEKRRAEAQLEETEKLLAKARLEEEEMRRSKAQLEEDELLAKALQESMNVGSPPRYDPGNILQPYPFLIPSSHRICVGCQAEIGHGRFLSCMGGVWHPECFCCNACDKPIIDYEFSMSGNRPYHKLCYKEQHHPKCDVCHNFIPTNPAGLIEYRAHPFWMQKYCPSHERDGTPRCCSCERMEPKDTKYLILDDGRKLCLECLDSAIMDTHECQPLYLEIREFYEGLHMKVEQQIPMLLVERSALNEAMEGEKHGHHHLPETRGLCLSEEQTVTTVLRRPRIGAGYKLIDMITEPCRLIRRCEVTAILILYGLPRLLTGSILAHEMMHAWLRLNGYPNLRPEVEEGICQVLAHMWLESETYAGSTLVDIASSSSSAVVSASSKKGERSDFEKKLGEFFKHQIESDSSSAYGDGFRQGNQAVLKHGLRRTLDHIRLTGTFP
notes: DAR1, Arabidopsis thaliana, AT4G36860; source: E. coli BL21 (DE3), purified (NI-NTA agarose beads)

From publication PMC7141810, “UBP12 and UBP13 negatively regulate the activity of the ubiquitin-dependent peptidases DA1, DAR1 and DAR2” (eLife, 2020)
